Assay results taken from paper PMC6858331.
Results are given in words; binding and its absence hold for the method and conditions named. In cells and extracts the contact can be indirect. Some results given as binding are weak or reduced against the parent protein; the word gives no strength.

The chains behind the UniProt entries cited, without tags or fusion partners.
UniProt P13640: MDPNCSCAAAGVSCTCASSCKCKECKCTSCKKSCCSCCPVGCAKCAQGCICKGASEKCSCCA

Tests used:
[1] = target: MT1G-flag (expressed in HepG2 cells) (human) (UniProt P13640); experiment: co-IP; endogenous assay: HepG2 cells transfected with MT1G-flag plasmid; lysates immunoprecipitated with anti-flag antibody, blotted with anti-p53 and anti-flag; 4 °C
[2] = target: MT1G-flag (expressed in 293T cells) (human) (UniProt P13640); experiment: co-IP; exogeneous assay: 293T cells transfected with MT1G-flag and p53-Myc plasmids; lysates immunoprecipitated with anti-flag antibody, blotted with anti-Myc and anti-flag; 4 °C

binding [1]	binding [2]	Substance
binds	–	p53 (endogenous, HepG2 cells) (from UniProt P04637 1-393)
–	binds	p53-Myc (wild-type p53, expressed in 293T cells) (from UniProt P04637 1-393)
